Source: PubChem BioAssay AID504648 (National Center for Advancing Translational Sciences (NCATS), 2011)
Screen size: about 390,000 compounds; about 610 (0.16%) were called active. This list was built around the results that the source calls inconclusive (neither active nor inactive); the mix of calls is not that of the screen. Calls come from the whole dose curve; as a rule, active = well fitted inhibition curve with a large enough effect; inconclusive = small, poorly fitted or top-dose-only effect, or effect the other way, or another doubt; inactive = no such curve, though single readings can be large or run the other way. Where the call is inconclusive, the potency comes from a doubtful curve fit.

Assay: Nrf2 qHTS screen for inhibitors: counterscreen for cytotoxicity
Details: A549 ARE-Fluc cells, CellTiter-Fluor viability, 18-24 h; series mostly up to 46 µM
Method in brief: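 A549 ARE-Fluc cells in 5% FBS OPTI-MEM, 5000 cells/well, rested 2 h then exposed to compounds in concentration-response for 18-24 h at 37 °C. Viability by CellTiter-Fluor fluorescence (Ex 405/Em 525) after 30 min; luciferase luminescence (BugLite, 15 min, RT) read afterwards.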
Potency is the fitted concentration of half-maximal effect.

SMILES	Potency
CN(C)c1ccc(C(=O)c2ccc(N(C)C)cc2)cc1	inactive
Clc1ccc(C[n+]2c(-c3ccccc3)cc(-c3ccccc3)cc2-c2ccccc2)cc1	inconclusive: 29.1 µM [falling, single point]
O=C1NC(=O)N(Cc2ccccc2)C(=O)/C1=C\C=C\c1ccco1	inconclusive: 29.1 µM [falling, single point]
c1ccc2nc3ccccc3nc2c1	inconclusive: 29.1 µM [falling, single point]
CN(c1ccccc1)c1ccc([N+](=O)[O-])c2nonc12	active: 20.6 µM
C=CCNC(=O)c1c(N)n(Cc2ccco2)c2nc3ccccc3nc12	inconclusive: 18.4 µM [activator, single point]
CN(C)[C@@H]1C(=O)C(C(N)=O)=C(O)[C@@]2(O)C(=O)C3=C(O)c4c(O)cccc4[C@@](C)(O)[C@H]3[C@H](O)[C@@H]12	inactive
CCOc1cc2c(cc1OCC)-n1cccc1C(c1ccc(C(C)C)cc1)NC2 (stereo not given)	inconclusive: 20.6 µM [falling, single point]
Cc1cccc(N=Nc2ccc(N(C)C)cc2)c1	inconclusive: 23.1 µM [falling, single point]
COc1ccccc1N=Nc1ccc(N)c(C)c1	inconclusive: 9.2 µM [falling, partial curve, poor fit]
COC(=O)c1c(N)n(Cc2ccc(OC)cc2)c2nc3ccccc3nc12	inactive
COC(=O)C1=C(c2ccccc2OCc2ccccc2)C[C@@H]2CC[C@H]1N2C(=O)NCc1ccc(N(C)C)cc1	inconclusive: 29.1 µM [falling, partial curve, poor fit]
CCCN1CCCC(C(=O)c2cc(C)c(OC)c(C)c2)C1 (stereo not given)	inactive
CC1(C)CSC(=NCc2ccccc2)N1	inconclusive: 20.6 µM [falling, single point]
O=[N+]([O-])c1ccc(N2CCCCCC2)c2nonc12	inconclusive: 13 µM [falling, partial curve]
COc1cc(Cl)c(C)cc1NC(=O)CCCn1c(=O)oc2ccccc21	inconclusive: 32.6 µM [falling, partial curve, poor fit]
COC(=O)[C@@H]1[C@@H](C(=O)OC)C2(c3ccccc3-c3ccccc32)N(c2ccc(Cl)cc2)N1C#N	inconclusive: 29.1 µM [falling, single point]
COc1cccc(N2C(=O)NC(=O)/C(=C\c3ccc([N+](=O)[O-])s3)C2=O)c1	inconclusive: 18.4 µM [falling, single point]
Cc1ccc2c(c1)C(Cc1nc3ccccc3c(=O)n1-c1ccc(Br)cc1)C(=O)N2 (stereo not given)	inconclusive: 20.6 µM [falling, single point]
Clc1cc(Cl)c(-c2cc(Cl)c(Cl)cc2Cl)cc1Cl	inactive

SMILES	Potency
Cc1cc(O)c2c(c1)C(=O)C13C(=C2O)C(=O)[C@H]2[C@@H](O)[C@@H]1[C@H]1[C@H](O)[C@@H]3C(=O)C3=C(O)c4c(O)cc(C)cc4C(=O)C312 (stereo not given in full)	inconclusive: 13 µM [falling, partial curve]
CC(=O)OC1CC(OC2C(O)CC(OC3C(O)CC(OC4CCC5(C)C(CCC6C5CCC5(C)C(C7=CC(=O)OC7)C(O)CC65O)C4)OC3C)OC2C)OC(C)C1OC1OC(CO)C(O)C(O)C1O (stereo not given)	inconclusive: 1.03 µM [falling, full curve]
CCOC(=O)c1c(N)n(Cc2ccccc2)c2nc3ccccc3nc12	inconclusive: 6.51 µM [activator, single point]
CCN(CC)c1ccc(C=C2C(=O)N(C)C(=S)N(C)C2=O)o1	inconclusive: 23.1 µM [falling, partial curve, poor fit]
COC(=O)C1=C(c2ccc(F)cc2OCc2ccccc2)C[C@@H]2CC[C@H]1N2C(=O)NCc1ccc(N(C)C)cc1	inconclusive: 16.4 µM [falling, single point]
COc1ccc(CCC(=O)N2CCC3(CC2)OCCO3)cc1	inconclusive: 16.4 µM [activator, partial curve, poor fit]
Clc1ccc(C(c2ccc(Cl)cc2)n2cc[n+](CC(OCc3ccc(Cl)cc3Cl)c3ccc(Cl)cc3Cl)c2)cc1 (stereo not given)	inconclusive: 20.6 µM [falling, partial curve, poor fit]
O=[N+]([O-])c1ccc(N2CCCNCC2)c2ncccc12	inconclusive: 20.6 µM [falling, single point]
COC(=O)C1=C(c2ccc(OC(F)(F)F)cc2)C[C@@H]2CC[C@H]1N2C(=O)NCc1cccc2ccccc12	inconclusive: 23.1 µM [falling, partial curve, poor fit]
CCCCn1c(O)c(C=Nc2c(C)n(C)n(-c3ccccc3)c2=O)c(=O)[nH]c1=O	inactive
COC(=O)C1CN(C#N)N(c2ccc(Cl)cc2)C12c1ccccc1-c1ccccc12 (stereo not given)	inconclusive: 23.1 µM [falling, single point]
c1ccc2c(CNC3CCCCCC3)c[nH]c2c1	inactive
O=C(O)Cn1cc(/C=C2\C(=O)NC(=O)N(Cc3ccco3)C2=O)c2ccccc21	inactive
Cc1c(N=Cc2c(O)n(CCc3ccccc3)c(=O)[nH]c2=O)c(=O)n(-c2ccccc2)n1C	inconclusive: 6.51 µM [falling, partial curve, poor fit]
CN1C(=O)C(C)(C2=CCCCC2)C(=O)NC1=S (stereo not given)	inconclusive: 4.61 µM [falling, partial curve, poor fit]
COP(=S)(OC)Oc1ccc(Sc2ccc(OP(=S)(OC)OC)cc2)cc1	inconclusive: 0.651 µM [activator, full curve, poor fit]
O=C(C1CCN(c2nc3ccc(Br)cc3s2)CC1)N1CCC2(CC1)OCCO2	inconclusive: 7.31 µM [falling, partial curve, poor fit]
COC(=O)C1=C(c2ccc(F)cc2OCc2ccccc2)C[C@@H]2CC[C@H]1N2C(=O)NC1CCCCC1	inconclusive: 20.6 µM [falling, single point]
Cc1ccc(CN2CCCC(C(=O)c3sccc3C)C2)o1 (stereo not given)	inactive
CN1CCC(O)(c2ccc(Cl)cc2)C(C(=O)c2ccc(Cl)cc2)C1 (stereo not given)	inactive

SMILES	Potency
O=c1[nH]c(O)c(N=Nc2ccc3c(c2)OCCO3)c(=O)[nH]1	inconclusive: 20.6 µM [falling, partial curve, poor fit]
CCC(C)OC(=O)c1c(N)n(Cc2cccs2)c2nc3ccccc3nc12 (stereo not given)	inconclusive: 29.1 µM [falling, single point]
CC12CC[C@H]3[C@@H](CCC4(O)C[C@H](O)CCC34/C=N/NC(=O)c3ccccc3[N+](=O)[O-])C1(O)CCC2C1=CC(=O)OC1 (stereo not given in full)	inconclusive: 9.2 µM [falling, partial curve]
COc1ccc(N/N=C/c2c(O)n(-c3ccc(C)c(C)c3)c(=O)[nH]c2=O)cc1	inconclusive: 25.9 µM [falling, single point]
Cc1ccc(N(C)C(=O)Oc2ccc(C(=O)c3ccc(Cl)cc3)cc2)cc1	inconclusive: 8.2 µM [falling, partial curve, poor fit]
O=[N+]([O-])c1ccc(N2CCNCC2)cc1N1CCCCC1	inconclusive: 0.259 µM [activator, full curve, poor fit]
O=C1NC(=O)N(c2ccc3c(c2)OCO3)C(=O)/C1=C/c1ccc(N2CCCCC2)o1	inconclusive: 23.1 µM [falling, single point]
CCCCCn1c(=O)c(C(=O)NCc2ccccn2)c(O)c2ccccc21	inconclusive: 18.4 µM [falling, single point]
CC(=O)O/C(=C1\CC2C3CC=C4CC(OC(C)=O)CCC4(C)C3CCC2(C)C1=O)C(F)(F)F (stereo not given)	inconclusive: 14.6 µM [falling, partial curve, poor fit]
CCOP(=O)(c1ccccc1)C(O)c1ccc(F)cc1 (stereo not given)	inconclusive: 16.4 µM [falling, partial curve, poor fit]
CCOC(=O)c1c(N)n(CCN2CCCCC2)c2nc3ccccc3nc12	inconclusive: 9.2 µM [activator, partial curve, poor fit]
COc1cccc(NC(=O)Cn2cc(C(=O)c3ccccc3)c3ccccc32)c1	inconclusive: 23.1 µM [falling, single point]
COC(=O)C1=C(c2ccc(OC(F)(F)F)cc2)C[C@@H]2CC[C@H]1N2C(=O)NCCOc1ccccc1Cl	inconclusive: 29.1 µM [falling, single point]
CN(C)c1ccc(C(=O)N/N=C/C23CC[C@@H](O)CC2(O)CC[C@@H]2[C@@H]3CCC3(C)C(C4=CC(=O)OC4)CCC23O)cc1 (stereo not given in full)	inconclusive: 9.2 µM [falling, partial curve, poor fit]
Cc1cccc(Cn2cccc(C(=O)Nc3ccc4c(c3)OCCO4)c2=O)c1	inconclusive: 16.4 µM [falling, partial curve, poor fit]
N=c1c2c(n(Cc3ccc(Cl)cc3Cl)c3c1CCC3)CCCC2	inconclusive: 32.6 µM [falling, partial curve, poor fit]
COc1ccc(CN2Cc3cnnn3-c3ccccc3C2c2ccccc2)cc1 (stereo not given)	inconclusive: 23.1 µM [falling, partial curve, poor fit]
Cc1cc2c(C(F)(F)F)cc(=O)oc2c2c1NCCC2	inconclusive: 16.4 µM [activator, partial curve, poor fit]
O=Cc1cn(Cc2ccccc2F)c2ccccc12	inactive
CN(C)C(=O)O/N=C(\N)COc1ccc(C(C)(C)C)cc1	active: 20.6 µM

Looked up one by one from the entries so far, 5 records:
SMILES	Potency
CN1C(=O)C(C)(C2=CCCCC2)C(=O)NC1=S (stereo not given)	inconclusive: 4.61 µM [falling, partial curve, poor fit]
COC(=O)C1=C(c2ccc(F)cc2OCc2ccccc2)C[C@@H]2CC[C@H]1N2C(=O)NC1CCCCC1	inconclusive: 20.6 µM [falling, single point]
CN(c1ccccc1)c1ccc([N+](=O)[O-])c2nonc12	active: 20.6 µM
CN(C)C(=O)O/N=C(\N)COc1ccc(C(C)(C)C)cc1	active: 20.6 µM
CN(C)[C@@H]1C(=O)C(C(N)=O)=C(O)[C@@]2(O)C(=O)C3=C(O)c4c(O)cccc4[C@@](C)(O)[C@H]3[C@H](O)[C@@H]12	inactive
